According to PMC4226509:
Results are given in words; binding and its absence hold for the method and conditions named. In cells and extracts the contact can be indirect. Some entries that bind do so weakly or less than the wild type. Tags and fused reporters may be left off the sequences shown.

Target: T1, PRPF3, in vitro translated (UniProt O43395)
T1 sequence (chain, [35S]-L-methionine label): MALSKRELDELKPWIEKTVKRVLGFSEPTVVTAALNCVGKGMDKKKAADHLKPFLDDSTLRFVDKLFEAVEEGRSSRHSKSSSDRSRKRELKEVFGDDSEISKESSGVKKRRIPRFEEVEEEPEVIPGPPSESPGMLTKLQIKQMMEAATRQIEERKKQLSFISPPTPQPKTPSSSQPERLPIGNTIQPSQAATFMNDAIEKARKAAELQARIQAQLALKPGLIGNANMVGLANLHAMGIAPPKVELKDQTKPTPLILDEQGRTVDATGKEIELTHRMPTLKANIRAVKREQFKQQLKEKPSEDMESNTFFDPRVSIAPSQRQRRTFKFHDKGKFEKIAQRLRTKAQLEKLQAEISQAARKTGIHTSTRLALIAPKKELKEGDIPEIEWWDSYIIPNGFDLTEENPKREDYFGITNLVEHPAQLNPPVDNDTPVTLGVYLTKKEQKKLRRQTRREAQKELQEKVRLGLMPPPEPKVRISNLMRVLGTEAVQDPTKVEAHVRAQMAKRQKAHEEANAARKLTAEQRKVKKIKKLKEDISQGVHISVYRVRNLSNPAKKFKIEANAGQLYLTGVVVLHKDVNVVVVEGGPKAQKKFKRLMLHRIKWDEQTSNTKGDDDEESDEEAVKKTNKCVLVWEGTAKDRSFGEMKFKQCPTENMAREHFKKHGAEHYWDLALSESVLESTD
Experiment: co-IP; [35S]-labelled proteins translated together in rabbit reticulocyte lysate; precipitated with anti-PRPF3 antibody on protein A- or G-Sepharose in IPP300 (20 mM Tris pH 7.0, 300 mM NaCl, 0.05% NP40); autoradiography

B1: HA-tagged wildtype PRPF4, in vitro translated (protein, UniProt O43172 1-522)
chain: MASSRASSTQATKTKAPDDLVAPVVKKPHIYYGSLEEKERERLAKGESGILGKDGLKAGIEAGNINITSGEVFEIEEHISERQAEVLAEFERRKRARQINVSTDDSEVKACLRALGEPITLFGEGPAERRERLRNILSVVGTDALKKTKKDDEKSKKSKEEYQQTWYHEGPNSLKVARLWIANYSLPRAMKRLEEARLHKEIPETTRTSQMQELHKSLRSLNNFCSQIGDDRPISYCHFSPNSKMLATACWSGLCKLWSVPDCNLLHTLRGHNTNVGAIVFHPKSTVSLDPKDVNLASCAADGSVKLWSLDSDEPVADIEGHTVRVARVMWHPSGRFLGTTCYDRSWRLWDLEAQEEILHQEGHSMGVYDIAFHQDGSLAGTGGLDAFGRVWDLRTGRCIMFLEGHLKEIYGINFSPNGYHIATGSGDNTCKVWDLRQRRCVYTIPAHQNLVTGVKFEPIHGNFLLTGAYDNTAKIWTHPGWSPLKTLAGHEGKVMGLDISSDGQLIATCSYDRTFKLWMAE
modifications: [35S]-L-methionine label
Question: For B1, which binding is on record?
Answer: binds
